Source: article PMC9966875
These are yes or no findings as the source states them, for the method shown. In cells and extracts the contact can be indirect. These calls come from enrichment with a bait or labelling near it, and not all partners need be listed. A no says only that the protein was not detected with the bait.

Amino acid sequences for entries named in this document (tags omitted).
UniProt P52926: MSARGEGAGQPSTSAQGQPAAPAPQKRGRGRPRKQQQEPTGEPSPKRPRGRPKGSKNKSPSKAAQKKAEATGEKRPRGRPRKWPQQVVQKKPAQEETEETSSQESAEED
UniProt P25440: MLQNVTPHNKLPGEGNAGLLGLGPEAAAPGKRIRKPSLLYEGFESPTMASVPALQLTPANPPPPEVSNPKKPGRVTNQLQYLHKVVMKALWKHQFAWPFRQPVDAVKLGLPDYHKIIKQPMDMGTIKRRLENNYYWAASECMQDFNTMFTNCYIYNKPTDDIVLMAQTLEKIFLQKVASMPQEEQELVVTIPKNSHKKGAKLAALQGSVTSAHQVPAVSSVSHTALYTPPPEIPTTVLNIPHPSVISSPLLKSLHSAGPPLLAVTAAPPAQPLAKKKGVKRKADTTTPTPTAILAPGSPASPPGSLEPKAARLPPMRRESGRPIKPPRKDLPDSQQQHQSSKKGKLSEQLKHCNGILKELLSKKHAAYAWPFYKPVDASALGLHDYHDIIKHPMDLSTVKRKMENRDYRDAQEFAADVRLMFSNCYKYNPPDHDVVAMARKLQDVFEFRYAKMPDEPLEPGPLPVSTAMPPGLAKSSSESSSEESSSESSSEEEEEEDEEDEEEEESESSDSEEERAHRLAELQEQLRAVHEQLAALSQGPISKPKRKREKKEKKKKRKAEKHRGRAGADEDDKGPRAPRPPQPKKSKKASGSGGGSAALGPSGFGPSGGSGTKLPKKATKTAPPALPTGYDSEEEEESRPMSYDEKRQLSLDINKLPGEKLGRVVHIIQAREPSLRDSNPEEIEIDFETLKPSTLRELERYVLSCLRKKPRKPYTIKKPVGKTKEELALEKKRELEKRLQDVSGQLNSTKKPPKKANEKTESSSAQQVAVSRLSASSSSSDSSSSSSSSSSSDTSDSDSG
UniProt O75367: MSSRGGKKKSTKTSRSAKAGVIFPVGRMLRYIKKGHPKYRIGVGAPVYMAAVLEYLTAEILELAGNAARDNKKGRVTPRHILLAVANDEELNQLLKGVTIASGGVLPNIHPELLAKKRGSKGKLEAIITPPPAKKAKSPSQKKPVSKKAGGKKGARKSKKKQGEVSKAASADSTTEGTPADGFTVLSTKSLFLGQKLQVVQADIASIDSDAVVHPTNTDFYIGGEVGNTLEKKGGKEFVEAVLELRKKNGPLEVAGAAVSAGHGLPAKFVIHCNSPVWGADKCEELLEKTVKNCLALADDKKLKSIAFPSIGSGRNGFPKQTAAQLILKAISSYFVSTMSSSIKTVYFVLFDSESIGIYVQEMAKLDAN
UniProt P09429: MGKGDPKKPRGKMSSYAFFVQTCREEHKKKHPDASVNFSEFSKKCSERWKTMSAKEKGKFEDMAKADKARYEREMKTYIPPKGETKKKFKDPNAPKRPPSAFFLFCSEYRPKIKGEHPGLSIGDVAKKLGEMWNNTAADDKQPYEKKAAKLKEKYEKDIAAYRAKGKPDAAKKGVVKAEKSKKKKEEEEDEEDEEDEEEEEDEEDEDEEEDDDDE
UniProt P46013: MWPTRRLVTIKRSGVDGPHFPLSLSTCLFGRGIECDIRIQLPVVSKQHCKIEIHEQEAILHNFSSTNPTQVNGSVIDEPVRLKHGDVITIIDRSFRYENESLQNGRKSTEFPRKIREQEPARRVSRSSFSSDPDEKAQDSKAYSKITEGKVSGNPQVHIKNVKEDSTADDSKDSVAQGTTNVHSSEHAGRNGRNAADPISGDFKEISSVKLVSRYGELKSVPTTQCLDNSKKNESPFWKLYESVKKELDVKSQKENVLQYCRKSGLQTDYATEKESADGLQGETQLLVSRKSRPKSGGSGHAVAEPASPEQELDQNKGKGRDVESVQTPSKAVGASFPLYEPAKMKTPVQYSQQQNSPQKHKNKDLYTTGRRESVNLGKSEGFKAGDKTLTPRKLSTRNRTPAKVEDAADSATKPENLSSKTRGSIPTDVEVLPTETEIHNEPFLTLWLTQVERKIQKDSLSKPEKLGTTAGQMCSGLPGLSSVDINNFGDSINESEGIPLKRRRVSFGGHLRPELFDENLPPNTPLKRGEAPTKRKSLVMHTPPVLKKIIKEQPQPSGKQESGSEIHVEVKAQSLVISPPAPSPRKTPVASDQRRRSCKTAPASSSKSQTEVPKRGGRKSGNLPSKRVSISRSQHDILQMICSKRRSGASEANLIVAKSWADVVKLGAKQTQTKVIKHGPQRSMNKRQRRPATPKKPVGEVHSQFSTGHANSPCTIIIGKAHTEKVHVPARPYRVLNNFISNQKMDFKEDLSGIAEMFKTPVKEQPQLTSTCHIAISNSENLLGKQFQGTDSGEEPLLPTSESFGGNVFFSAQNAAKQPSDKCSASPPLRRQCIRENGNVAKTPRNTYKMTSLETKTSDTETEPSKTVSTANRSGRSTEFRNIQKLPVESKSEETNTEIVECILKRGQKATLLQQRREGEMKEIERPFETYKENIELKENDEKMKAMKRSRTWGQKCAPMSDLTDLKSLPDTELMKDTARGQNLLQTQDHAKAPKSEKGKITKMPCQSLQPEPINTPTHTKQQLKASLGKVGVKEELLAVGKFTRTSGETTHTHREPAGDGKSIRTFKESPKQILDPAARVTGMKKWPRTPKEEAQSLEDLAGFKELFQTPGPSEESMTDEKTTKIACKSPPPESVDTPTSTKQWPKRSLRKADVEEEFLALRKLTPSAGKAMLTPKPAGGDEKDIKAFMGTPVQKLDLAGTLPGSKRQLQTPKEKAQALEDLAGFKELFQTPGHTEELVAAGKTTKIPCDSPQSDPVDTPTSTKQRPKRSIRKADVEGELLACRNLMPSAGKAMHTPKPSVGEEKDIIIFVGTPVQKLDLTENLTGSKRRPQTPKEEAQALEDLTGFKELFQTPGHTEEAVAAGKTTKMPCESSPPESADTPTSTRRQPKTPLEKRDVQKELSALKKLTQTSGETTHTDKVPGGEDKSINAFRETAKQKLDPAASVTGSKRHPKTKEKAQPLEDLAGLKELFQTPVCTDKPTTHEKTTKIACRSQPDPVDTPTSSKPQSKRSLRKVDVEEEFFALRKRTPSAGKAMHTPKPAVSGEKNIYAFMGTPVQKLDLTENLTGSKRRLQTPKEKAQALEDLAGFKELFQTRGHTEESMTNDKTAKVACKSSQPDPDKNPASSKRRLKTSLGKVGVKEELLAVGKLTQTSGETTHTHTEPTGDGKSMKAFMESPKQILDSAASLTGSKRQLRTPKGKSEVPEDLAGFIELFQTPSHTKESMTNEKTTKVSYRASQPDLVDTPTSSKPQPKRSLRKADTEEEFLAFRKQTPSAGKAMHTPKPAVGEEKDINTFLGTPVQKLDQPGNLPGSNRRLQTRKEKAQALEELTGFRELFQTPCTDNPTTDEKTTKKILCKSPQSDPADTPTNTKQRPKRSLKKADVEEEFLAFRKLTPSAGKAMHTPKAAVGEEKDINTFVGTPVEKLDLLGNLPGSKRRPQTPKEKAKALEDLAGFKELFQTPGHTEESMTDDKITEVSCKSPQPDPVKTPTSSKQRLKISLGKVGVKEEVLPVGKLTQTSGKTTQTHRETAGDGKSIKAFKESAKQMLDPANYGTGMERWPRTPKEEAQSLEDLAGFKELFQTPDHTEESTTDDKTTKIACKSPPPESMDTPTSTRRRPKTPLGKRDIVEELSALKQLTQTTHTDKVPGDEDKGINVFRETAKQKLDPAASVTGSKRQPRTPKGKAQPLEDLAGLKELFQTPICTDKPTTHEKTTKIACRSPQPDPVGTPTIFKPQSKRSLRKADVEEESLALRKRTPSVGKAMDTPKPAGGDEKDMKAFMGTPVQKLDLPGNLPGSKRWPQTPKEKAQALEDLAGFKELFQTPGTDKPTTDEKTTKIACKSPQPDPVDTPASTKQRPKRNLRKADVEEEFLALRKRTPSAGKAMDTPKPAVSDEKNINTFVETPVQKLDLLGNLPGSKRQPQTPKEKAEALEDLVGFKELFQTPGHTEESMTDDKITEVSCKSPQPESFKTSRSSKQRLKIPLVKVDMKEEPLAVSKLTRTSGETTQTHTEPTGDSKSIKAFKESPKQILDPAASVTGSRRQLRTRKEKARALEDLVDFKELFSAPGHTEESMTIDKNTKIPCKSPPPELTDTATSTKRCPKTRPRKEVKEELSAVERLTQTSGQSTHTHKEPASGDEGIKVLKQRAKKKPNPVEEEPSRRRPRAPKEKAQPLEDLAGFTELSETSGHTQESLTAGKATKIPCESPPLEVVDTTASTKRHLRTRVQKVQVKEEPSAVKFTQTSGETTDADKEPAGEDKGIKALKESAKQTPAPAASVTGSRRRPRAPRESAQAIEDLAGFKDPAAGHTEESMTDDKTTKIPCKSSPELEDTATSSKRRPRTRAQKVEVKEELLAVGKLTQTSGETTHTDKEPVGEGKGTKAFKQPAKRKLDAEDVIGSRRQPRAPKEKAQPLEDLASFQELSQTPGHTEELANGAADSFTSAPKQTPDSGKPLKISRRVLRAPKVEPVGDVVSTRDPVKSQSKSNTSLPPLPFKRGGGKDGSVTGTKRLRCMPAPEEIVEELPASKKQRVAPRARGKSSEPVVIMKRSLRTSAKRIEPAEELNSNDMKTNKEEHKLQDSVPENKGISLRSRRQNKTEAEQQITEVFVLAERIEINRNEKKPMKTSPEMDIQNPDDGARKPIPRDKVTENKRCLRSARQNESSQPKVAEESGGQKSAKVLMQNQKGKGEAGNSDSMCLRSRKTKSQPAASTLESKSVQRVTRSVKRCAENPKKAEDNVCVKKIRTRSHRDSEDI
UniProt P09874: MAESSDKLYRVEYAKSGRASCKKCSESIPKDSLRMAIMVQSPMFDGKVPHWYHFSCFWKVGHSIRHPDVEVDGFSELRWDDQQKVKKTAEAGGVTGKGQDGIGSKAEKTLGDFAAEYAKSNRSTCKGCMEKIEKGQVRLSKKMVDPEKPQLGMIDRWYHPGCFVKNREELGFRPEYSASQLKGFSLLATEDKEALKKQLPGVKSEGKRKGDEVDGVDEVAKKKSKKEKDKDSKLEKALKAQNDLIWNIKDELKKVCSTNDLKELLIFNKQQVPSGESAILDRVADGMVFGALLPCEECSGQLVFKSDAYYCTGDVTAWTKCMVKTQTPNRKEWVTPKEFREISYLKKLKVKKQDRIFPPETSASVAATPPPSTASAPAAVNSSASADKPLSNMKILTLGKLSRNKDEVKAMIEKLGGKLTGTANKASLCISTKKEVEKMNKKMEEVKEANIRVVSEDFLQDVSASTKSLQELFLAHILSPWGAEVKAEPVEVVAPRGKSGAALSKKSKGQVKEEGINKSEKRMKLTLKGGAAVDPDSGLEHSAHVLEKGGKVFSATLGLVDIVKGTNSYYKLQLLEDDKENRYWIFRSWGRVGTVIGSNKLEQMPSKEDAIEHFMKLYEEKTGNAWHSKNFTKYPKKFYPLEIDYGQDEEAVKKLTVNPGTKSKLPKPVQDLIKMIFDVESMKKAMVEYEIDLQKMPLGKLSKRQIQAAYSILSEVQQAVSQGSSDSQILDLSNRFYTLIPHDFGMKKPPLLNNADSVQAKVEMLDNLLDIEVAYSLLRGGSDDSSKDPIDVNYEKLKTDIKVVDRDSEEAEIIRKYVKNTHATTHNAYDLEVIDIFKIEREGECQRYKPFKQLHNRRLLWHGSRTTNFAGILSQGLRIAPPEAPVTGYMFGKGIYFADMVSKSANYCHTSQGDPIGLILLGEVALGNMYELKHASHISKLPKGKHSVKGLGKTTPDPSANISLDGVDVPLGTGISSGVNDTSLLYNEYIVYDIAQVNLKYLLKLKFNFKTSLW
UniProt Q9ULW0: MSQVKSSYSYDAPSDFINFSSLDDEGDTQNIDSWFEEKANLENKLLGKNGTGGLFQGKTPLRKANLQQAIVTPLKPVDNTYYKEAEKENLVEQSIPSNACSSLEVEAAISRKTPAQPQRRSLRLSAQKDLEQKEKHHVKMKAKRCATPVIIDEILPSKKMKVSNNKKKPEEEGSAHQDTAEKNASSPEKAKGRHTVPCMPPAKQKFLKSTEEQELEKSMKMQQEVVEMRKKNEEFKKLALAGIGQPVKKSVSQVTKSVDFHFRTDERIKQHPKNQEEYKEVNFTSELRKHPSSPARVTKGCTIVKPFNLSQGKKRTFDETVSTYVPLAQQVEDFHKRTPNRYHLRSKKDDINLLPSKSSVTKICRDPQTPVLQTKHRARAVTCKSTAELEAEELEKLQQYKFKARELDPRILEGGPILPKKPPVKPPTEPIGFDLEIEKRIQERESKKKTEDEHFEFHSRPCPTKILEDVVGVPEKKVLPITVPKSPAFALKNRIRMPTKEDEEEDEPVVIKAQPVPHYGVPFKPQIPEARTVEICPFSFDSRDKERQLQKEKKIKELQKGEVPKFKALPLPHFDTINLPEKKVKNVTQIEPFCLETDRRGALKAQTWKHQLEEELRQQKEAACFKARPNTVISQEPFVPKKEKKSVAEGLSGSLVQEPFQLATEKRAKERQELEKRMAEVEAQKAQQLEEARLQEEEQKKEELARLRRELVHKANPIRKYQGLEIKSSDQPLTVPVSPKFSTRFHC

B1: CDCA2 (protein, UniProt Q69YH5 1-1023)
chain: MDANSKDKPPETKESAMNNAGNASFILGTGKIVTPQKHAELPPNPCTPDTFKSPLNFSTVTVEQLGITPESFVRNSAGKSSSYLKKCRRRSAVGARGSPETNHLIRFIARQQNIKNARKSPLAQDSPSQGSPALYRNVNTLRERISAFQSAFHSIKENEKMTGCLEFSEAGKESEMTDLTRKEGLSACQQSGFPAVLSSKRRRISYQRDSDENLTDAEGKVIGLQIFNIDTDRACAVETSVDLSEISSKLGSTQSGFLVEESLPLSELTETSNALKVADCVVGKGSSDAVSPDTFTAEVSSDAVPDVRSPATPACRRDLPTPKTFVLRSVLKKPSVKMCLESLQEHCNNLYDDDGTHPSLISNLPNCCKEKEAEDEENFEAPAFLNMRKRKRVTFGEDLSPEVFDESLPANTPLRKGGTPVCKKDFSGLSSLLLEQSPVPEPLPQPDFDDKGENLENIEPLQVSFAVLSSPNKSSISETLSGTDTFSSSNNHEKISSPKVGRITRTSNRRNQLVSVVEESVCNLLNTEVQPCKEKKINRRKSQETKCTKRALPKKSQVLKSCRKKKGKGKKSVQKSLYGERDIASKKPLLSPIPELPEVPEMTPSIPSIRRLGSGYFSSNGKLEEVKTPKNPVKRKDLLRHDPDLHMHQGYDKYDVSEFCSYIKSSSSLGNATSDEDPNTNIMNINENKNIPKAKNKSESENEPKAGTDSPVSCASVTEERVASDSPKPALTLQQGQEFSAGGQNAENLCQFFKISPDLNIKCERKDDFLGAAEGKLQCNRLMPNSQKDCHCLGDVLIENTKESKSQSEDLGRKPMESSSVVSCRDRKDRRRSMCYSDGRSLHLEKNGNHTPSSSVGSSVEISLENSELFKDLSDAIEQTFQRRNSETKVRRSTRLQKDLENEGLVWISLPLPSTSQKAKRRTICTFDSSGFESMSPIKETVSSRQKPQMAPPVSDPENSQGPAAGSSDEPGKRRKSFCISTLANTKATSQFKGYRRRSSLNGKGESSLTALERIEHNGERKQ
B2: CDCA8 (protein, UniProt Q53HL2 1-280)
chain: MAPRKGSSRVAKTNSLRRRKLASFLKDFDREVEIRIKQIESDRQNLLKEVDNLYNIEILRLPKALREMNWLDYFALGGNKQALEEAATADLDITEINKLTAEAIQTPLKSAKTRKVIQVDEMIVEEEEEEENERKNLQTARVKRCPPSKKRTQSIQGKGKGKRSSRANTVTPAVGRLEVSMVKPTPGLTPRFDSRVFKTPGLRTPAAGERIYNISGNGSPLADSKEIFLTVPVGGGESLRLLASDLQRHSIAQLDPEALGNIKKLSNRLAQICSSIRTHK
B3: CHAMP1 (protein, UniProt Q96JM3 1-812)
chain: MEAFQELRKPSARLECDHCSFRGTDYENVQIHMGTIHPEFCDEMDAGGLGKMIFYQKSAKLFHCHKCFFTSKMYSNVYYHITSKHASPDKWNDKPKNQLNKETDPVKSPPLPEHQKIPCNSAEPKSIPALSMETQKLGSVLSPESPKPTPLTPLEPQKPGSVVSPELQTPLPSPEPSKPASVSSPEPPKSVPVCESQKLAPVPSPEPQKPAPVSPESVKATLSNPKPQKQSHFPETLGPPSASSPESPVLAASPEPWGPSPAASPESRKSARTTSPEPRKPSPSESPEPWKPFPAVSPEPRRPAPAVSPGSWKPGPPGSPRPWKSNPSASSGPWKPAKPAPSVSPGPWKPIPSVSPGPWKPTPSVSSASWKSSSVSPSSWKSPPASPESWKSGPPELRKTAPTLSPEHWKAVPPVSPELRKPGPPLSPEIRSPAGSPELRKPSGSPDLWKLSPDQRKTSPASLDFPESQKSSRGGSPDLWKSSFFIEPQKPVFPETRKPGPSGPSESPKAASDIWKPVLSIDTEPRKPALFPEPAKTAPPASPEARKRALFPEPRKHALFPELPKSALFSESQKAVELGDELQIDAIDDQKCDILVQEELLASPKKLLEDTLFPSSKKLKKDNQESSDAELSSSEYIKTDLDAMDIKGQESSSDQEQVDVESIDFSKENKMDMTSPEQSRNVLQFTEEKEAFISEEEIAKYMKRGKGKYYCKICCCRAMKKGAVLHHLVNKHNVHSPYKCTICGKAFLLESLLKNHVAAHGQSLLKCPRCNFESNFPRGFKKHLTHCQSRHNEEANKKLMEALEPPLEEQQI
B4: DNTTIP2 (protein, UniProt Q5QJE6 1-756)
chain: MVVTRSARAKASIQAASAESSGQKSFAANGIQAHPESSTGSDARTTAESQTTGKQSLIPRTPKARKRKSRTTGSLPKGTEPSTDGETSEAESNYSVSEHHDTILRVTRRRQILIACSPVSSVRKKPKVTPTKESYTEEIVSEAESHVSGISRIVLPTEKTTGARRSKAKSLTDPSQESHTEAISDAETSSSDISFSGIATRRTRSMQRKLKAQTEKKDSKIVPGNEKQIVGTPVNSEDSDTRQTSHLQARSLSEINKPNFYNNDFDDDFSHRSSENILTVHEQANVESLKETKQNCKDLDEDANGITDEGKEINEKSSQLKNLSELQDTSLQQLVSQRHSTPQNKNAVSVHSNLNSEAVMKSLTQTFATVEVGRWNNNKKSPIKASDLTKFGDCGGSDDEEESTVISVSEDMNSEGNVDFECDTKLYTSAPNTSQGKDNSVLLVLSSDESQQSENSENEEDTLCFVENSGQRESLSGDTGSLSCDNALFVIDTTPGMSADKNFYLEEEDKASEVAIEEEKEEEEDEKSEEDSSDHDENEDEFSDEEDFLNSTKAKLLKLTSSSIDPGLSIKQLGGLYINFNADKLQSNKRTLTQIKEKKKNELLQKAVITPDFEKNHCVPPYSESKYQLQKKRRKERQKTAGDGWFGMKAPEMTNELKNDLKALKMRASMDPKRFYKKNDRDGFPKYFQIGTIVDNPADFYHSRIPKKQRKRTIVEELLADSEFRRYNRRKYSEIMAEKAANAAGKKFRKKKKFRN
B5: HMGB2 (protein, UniProt P26583 1-209)
chain: MGKGDPNKPRGKMSSYAFFVQTCREEHKKKHPDSSVNFAEFSKKCSERWKTMSAKEKSKFEDMAKSDKARYDREMKNYVPPKGDKKGKKKDPNAPKRPPSAFFLFCSEHRPKIKSEHPGLSIGDTAKKLGEMWSEQSAKDKQPYEQKAAKLKEKYEKDIAAYRAKGKSEAGKKGPGRPTGSKKKNEPEDEEEEEEEEDEDEEEEDEDEE

Legend:
HMGA2-V5-miniTurbo = HMGA2-V5-miniTurbo (UniProt P52926); assay: proximity labelling; miniTurbo: HEK293 stably expressing HMGA2-V5-miniTurbo, SILAC, 1 hr labeling time with biotin; streptavidin capture, LC-MS/MS; control miniTurbo alone
HMGA2-Flag-BioID2 = HMGA2-Flag-BioID2 (UniProt P52926); assay: proximity labelling; BioID2: HEK293 stably expressing HMGA2-Flag-BioID2, SILAC, 50 uM biotin for 18 h; high-salt RIPA lysis, capture on streptavidin-agarose, LC-MS/MS; two experiments, controls BirA* and parental cells (experiment 1), BioID2 alone (experiment 2)

Molecule | binding (HMGA2-V5-miniTurbo) | binding (HMGA2-Flag-BioID2)
BRD2 (from UniProt P25440 1-801) | binds | binds
CBX3 (from UniProt Q13185 1-183) | binds | binds
GTF2I (from UniProt P78347 1-998) | binds | binds
H2AY (from UniProt O75367 1-369) | binds | binds
HAT1 (from UniProt O14929 1-419) | binds | binds
HIST1H1C (from UniProt P16403 1-213) | binds | binds
HMGB1 (from UniProt P09429 1-215) | binds | binds
LAP2B (from UniProt P42167) | binds | binds
MDC1 (from UniProt Q14676 1-2089) | binds | binds
MKI67 (from UniProt P46013 1-3256) | binds | binds
PARP1 (from UniProt P09874 1-1014) | binds | binds
PSIP1 (from UniProt O75475 1-530) | binds | binds
SSRP1 (from UniProt Q08945 1-709) | binds | binds
TPX2 (from UniProt Q9ULW0 1-747) | binds | binds
Topoisomerase I (TOPO-1) (from UniProt P11387 1-765) | no binding | no binding
WIZ (from UniProt O95785 1-1651) | binds | binds
ZNF24 (from UniProt P17028 1-368) | binds | binds
B1 | binds | binds
B2 | binds | binds
B3 | binds | binds
B4 | binds | binds
B5 | binds | binds
